# Reference: the supplement of paper PMC8728848
# Some of the results follow.
# B1: Gal 10 (Homo sapiens), Q05315 (protein)
# chain: MSLLPVPYTEAASLSTGSTVTIKGRPLVCFLNEPYLQVDFHTEMKEESDIVFHFQVCFGRRVVMNSREYGAWKQQVESKNMPFQDGQEFELSISVLPDKYQVMVNGQSSYTFDHRIKPEAVKMVQVWRDISLTKFNVSYLKR
# How the values were obtained:
# Experiment in all cases: glycan array binding signal (z-score within array); higher = stronger binding
# Conditions in all cases: glycan notation: IUPAC condensed, linker removed
# [1] = target: Fuc(a1-2)[GalNAc(a1-3)]Gal(b1-4)GlcNAc(b1-3)[Fuc(a1-2)[GalNAc(a1-3)]Gal(b1-4)GlcNAc(b1-6)]GalNAc
# Outline: (§1)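 Glycan array data came from 3228 arrays in the Consortium for Functional Glycomics database, and only arrays with an available protein sequence were kept. Glycan names were put into IUPAC-condensed notation, and columns mapping to the same glycan were averaged. The binding signal is a within-array Z-score, averaged across arrays of one protein sequence run at different concentrations or buffers and across linkers. A negative Z-score can be read as non-binding.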
# [2] = target: Fuc(a1-2)[GalNAc(a1-3)]Gal(b1-4)GlcNAc(b1-6)GalNAc
# Outline: as §1
# [3] = target: Fuc(a1-2)[GalNAc(a1-3)]Gal(b1-4)[Fuc(a1-3)]GlcNAc
# Outline: as §1
# [4] = target: Fuc(a1-2)[GalNAc(a1-3)]Gal(b1-4)[Fuc(a1-3)]GlcNAc(b1-3)GalNAc
# Outline: as §1
# [5] = target: Fuc(a1-2)[GalNAc(a1-4)]Gal(b1-4)GlcNAc
# Outline: as §1
# [6] = target: Fuc(a1-2)[GalNAc(b1-3)]Gal
# Outline: as §1
# Fuc(a1-3)GlcNAc = target: Fuc(a1-3)GlcNAc
# Outline: as §1
# [7] = target: Fuc(a1-3)[Gal(b1-4)]Glc6S
# Outline: as §1
# [8] = target: Fuc(a1-3)[Gal(b1-4)]GlcNAc
# Outline: as §1
# [9] = target: Fuc(a1-3)[Gal(b1-4)]GlcNAc(b1-2)Man
# Outline: as §1
# [10] = target: Fuc(a1-3)[Gal(b1-4)]GlcNAc(b1-2)Man(a1-3)[Fuc(a1-3)[Gal(b1-4)]GlcNAc(b1-2)Man(a1-6)]Man(b1-4)GlcNAc(b1-4)GlcNAc
# Outline: as §1
# [11] = target: Fuc(a1-3)[Gal(b1-4)]GlcNAc(b1-2)Man(a1-3)[Fuc(a1-3)[Gal(b1-4)]GlcNAc(b1-2)Man(a1-6)]Man(b1-4)GlcNAc(b1-4)[Fuc(a1-6)]GlcNAc
# Outline: as §1
# [12] = target: Fuc(a1-3)[Gal(b1-4)]GlcNAc(b1-3)Gal(b1-3)[Fuc(a1-4)]GlcNAc
# Outline: as §1
# [13] = target: Fuc(a1-3)[Gal(b1-4)]GlcNAc(b1-3)GalNAc
# Outline: as §1
# [14] = target: Fuc(a1-3)[Gal(b1-4)]GlcNAc(b1-4)Gal(b1-4)[Fuc(a1-3)]GlcNAc
# Outline: as §1
# [15] = target: Fuc(a1-3)[Gal(b1-4)]GlcNAc(b1-4)Gal(b1-4)[Fuc(a1-3)]GlcNAc(b1-4)Gal(b1-4)[Fuc(a1-3)]GlcNAc
# Outline: as §1
# [16] = target: Fuc(a1-3)[Gal(b1-4)]GlcNAc(b1-6)GalNAc
# Outline: as §1
# [17] = target: Fuc(a1-3)[Gal(b1-4)]GlcNAc(b1-6)[Gal(b1-3)GlcNAc(b1-3)]Gal(b1-4)Glc
# Outline: as §1
# [18] = target: Fuc(a1-3)[Gal(b1-4)]GlcNAc(b1-6)[Neu5Ac(a2-3)Gal(b1-3)]GalNAc
# Outline: as §1
# [19] = target: Fuc(a1-3)[Gal(b1-4)]GlcNAc6S
# Outline: as §1
# [20] = target: Fuc(a1-3)[Gal3S(b1-4)]Glc
# Outline: as §1
# [21] = target: Fuc(a1-3)[Gal3S(b1-4)]GlcNAc
# Outline: as §1
# [22] = target: Fuc(a1-3)[Gal3S(b1-4)]GlcNAc6S
# Outline: as §1
# [23] = target: Fuc(a1-3)[GalNAc(b1-4)]GlcNAc
# Outline: as §1
# [24] = target: Fuc(a1-3)[GalNAc(b1-4)]GlcNAc6S
# Outline: as §1
# [25] = target: Fuc(a1-3)[GalNAc3S(b1-4)]GlcNAc
# Outline: as §1
# Fuc(a1-4)GlcNAc = target: Fuc(a1-4)GlcNAc
# Outline: as §1
# Fuc(b1-3)GlcNAc = target: Fuc(b1-3)GlcNAc
# Outline: as §1
# Gal(a1-2)Gal = target: Gal(a1-2)Gal
# Outline: as §1
# Gal(a1-3)Gal = target: Gal(a1-3)Gal
# Outline: as §1
# Gal(a1-3)Gal(b1-3)GlcNAc = target: Gal(a1-3)Gal(b1-3)GlcNAc
# Outline: as §1
# [26] = target: Gal(a1-3)Gal(b1-3)GlcNAc(b1-2)Man
# Outline: as §1
# [27] = target: Gal(a1-3)Gal(b1-3)GlcNAc(b1-2)Man(a1-3)[Gal(a1-3)Gal(b1-3)GlcNAc(b1-2)Man(a1-6)]Man(b1-4)GlcNAc(b1-4)GlcNAc
# Outline: as §1
# [28] = target: Gal(a1-3)Gal(b1-3)GlcNAc(b1-3)GalNAc
# Outline: as §1
# [29] = target: Gal(a1-3)Gal(b1-3)GlcNAc(b1-6)GalNAc
# Outline: as §1
# [30] = target: Gal(a1-3)Gal(b1-3)[Fuc(a1-4)]GlcNAc(b1-2)Man(a1-3)[Gal(a1-3)Gal(b1-3)[Fuc(a1-4)]GlcNAc(b1-2)Man(a1-6)]Man(b1-4)GlcNAc(b1-4)GlcNAc
# Outline: as §1
# Gal(a1-3)Gal(b1-4)Glc = target: Gal(a1-3)Gal(b1-4)Glc
# Outline: as §1
# Gal(a1-3)Gal(b1-4)GlcNAc = target: Gal(a1-3)Gal(b1-4)GlcNAc
# Outline: as §1
# [31] = target: Gal(a1-3)Gal(b1-4)GlcNAc(b1-2)Man
# Outline: as §1
# [32] = target: Gal(a1-3)Gal(b1-4)GlcNAc(b1-2)Man(a1-3)[Gal(a1-3)Gal(b1-4)GlcNAc(b1-2)Man(a1-6)]Man(b1-4)GlcNAc(b1-4)GlcNAc
# Outline: as §1
# [33] = target: Gal(a1-3)Gal(b1-4)GlcNAc(b1-3)GalNAc
# Outline: as §1
# [34] = target: Gal(a1-3)Gal(b1-4)GlcNAc(b1-6)GalNAc
# Outline: as §1
# [35] = target: Gal(a1-3)Gal(b1-4)[Fuc(a1-3)]GlcNAc
# Outline: as §1
# [36] = target: Gal(a1-3)Gal(b1-4)[Fuc(a1-3)]GlcNAc(b1-2)Man(a1-3)[Gal(a1-3)Gal(b1-4)[Fuc(a1-3)]GlcNAc(b1-2)Man(a1-6)]Man(b1-4)GlcNAc(b1-4)GlcNAc
# Outline: as §1
# Gal(a1-3)GalNAc = target: Gal(a1-3)GalNAc
# Outline: as §1
binder,measurement,setting,value
B1,glycan array binding signal (z-score),[1],3.88
same,glycan array binding signal (z-score),[2],-0.639
same,glycan array binding signal (z-score),[3],0.948
same,glycan array binding signal (z-score),[4],0.495
same,glycan array binding signal (z-score),[5],-0.476
same,glycan array binding signal (z-score),[6],-0.689
same,glycan array binding signal (z-score),Fuc(a1-3)GlcNAc,0.306
same,glycan array binding signal (z-score),[7],-0.989
same,glycan array binding signal (z-score),[8],-0.445
same,glycan array binding signal (z-score),[9],1.17
same,glycan array binding signal (z-score),[10],0.809
same,glycan array binding signal (z-score),[11],0.244
same,glycan array binding signal (z-score),[12],-0.108
same,glycan array binding signal (z-score),[13],0.678
same,glycan array binding signal (z-score),[14],0.68
same,glycan array binding signal (z-score),[15],0.306
same,glycan array binding signal (z-score),[16],1.47
same,glycan array binding signal (z-score),[17],-0.203
same,glycan array binding signal (z-score),[18],-0.565
same,glycan array binding signal (z-score),[19],0.152
same,glycan array binding signal (z-score),[20],-0.241
same,glycan array binding signal (z-score),[21],-0.733
same,glycan array binding signal (z-score),[22],0.451
same,glycan array binding signal (z-score),[23],0.593
same,glycan array binding signal (z-score),[24],-0.191
same,glycan array binding signal (z-score),[25],-0.225
same,glycan array binding signal (z-score),Fuc(a1-4)GlcNAc,-0.138
same,glycan array binding signal (z-score),Fuc(b1-3)GlcNAc,0.585
same,glycan array binding signal (z-score),Gal(a1-2)Gal,0.13
same,glycan array binding signal (z-score),Gal(a1-3)Gal,-0.311
same,glycan array binding signal (z-score),Gal(a1-3)Gal(b1-3)GlcNAc,-0.317
same,glycan array binding signal (z-score),[26],-0.565
same,glycan array binding signal (z-score),[27],1.89
same,glycan array binding signal (z-score),[28],-0.195
same,glycan array binding signal (z-score),[29],0.334
same,glycan array binding signal (z-score),[30],0.703
same,glycan array binding signal (z-score),Gal(a1-3)Gal(b1-4)Glc,0.851
same,glycan array binding signal (z-score),Gal(a1-3)Gal(b1-4)GlcNAc,0.105
same,glycan array binding signal (z-score),[31],-0.257
same,glycan array binding signal (z-score),[32],0.982
same,glycan array binding signal (z-score),[33],0.463
same,glycan array binding signal (z-score),[34],-0.126
same,glycan array binding signal (z-score),[35],-0.547
same,glycan array binding signal (z-score),[36],0.274
same,glycan array binding signal (z-score),Gal(a1-3)GalNAc,0.123

# Part of the list above in another layout.
binder	measurement	setting	value
B1	glycan array binding signal (z-score)	[32]	0.982
same	glycan array binding signal (z-score)	[33]	0.463
